# Test results from the supplement of paper PMC4635364.
# Where a name gives a salt, the structure may show the parent alone. Some of the results follow. Repeats in this data set agree poorly, so a single value says little.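 Cells: ReNCell VM human fetal ventral-midbrain neural progenitors, differentiated mitogen-free. Blinded raters compared doublecortin-stained (early neurons) or tyrosine hydroxylase-stained (dopaminergic neurons) images with untreated wells, where 0 means no change. After repeats and both raters were averaged, compounds scoring 2 or above became hits for retesting.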
# What was measured:
# ReNCell VM [1] = experiment: neuronal differentiation score (DCX+ cell fraction vs untreated, manual image score) (score (-3 to 3)); higher = more neuronal differentiation; details: 2 uM, 2 weeks
# ReNCell VM [2] = experiment: dopaminergic neuron differentiation score (TH+ cell fraction vs untreated, manual image score) (score (0 to 3)); higher = more TH+ dopaminergic neuron differentiation; details: 2 uM, 4 weeks, BDNF 10 ng/ml + GDNF 10 ng/ml
compound,measurement,setting,value
CCCc1cc(=O)[nH]c(=S)[nH]1 [Propylthiouracil],neuronal differentiation score,ReNCell VM [1]; library: Prestwick,inactive: 0
same,dopaminergic neuron differentiation score,ReNCell VM [2]; library: Prestwick,inactive: 0
Nc1ccc(C(=O)NCC(=O)O)cc1 [Aminohippuric acid],neuronal differentiation score,ReNCell VM [1]; library: Prestwick,inactive: 0
same,dopaminergic neuron differentiation score,ReNCell VM [2]; library: Prestwick,inactive: 0
OC[C@@H](O)[C@@H](O[C@@H]1O[C@H](CO)[C@H](O)[C@H](O)[C@H]1O)[C@H](O)[C@@H](O)CO,neuronal differentiation score,ReNCell VM [1]; library: Spectrum,inactive: 0
same,dopaminergic neuron differentiation score,ReNCell VM [2]; library: Spectrum,inactive: 0
COc1ccc(-c2nc(-c3ccc(-c4cccc(Cl)c4)o3)[nH]c2-c2ccc(OC)cc2)cc1 [Neurodazine],neuronal differentiation score,ReNCell VM [1]; library: Tocriscreen,inactive: 0
same,dopaminergic neuron differentiation score,ReNCell VM [2]; library: Tocriscreen,inactive: 0
Cc1nn(C)c2nc(NNC(=O)Nc3cc(Cl)nc(Cl)c3)cc(C(C)C)c12,neuronal differentiation score,ReNCell VM [1]; library: Tocriscreen,inactive: 0
same,dopaminergic neuron differentiation score,ReNCell VM [2]; library: Tocriscreen,inactive: 0
CCOC(=O)CC(=O)N1CCSC1COc1ccccc1OC (stereo unspecified),neuronal differentiation score,ReNCell VM [1]; library: Spectrum,inactive: 0
same,dopaminergic neuron differentiation score,ReNCell VM [2]; library: Spectrum,inactive: 1
C[C@@H](O)[C@H]1C(=O)N2C(C(=O)O)=C(S[C@@H]3CN[C@H](C(=O)N(C)C)C3)[C@H](C)[C@H]12 [Meropenem],neuronal differentiation score,ReNCell VM [1]; library: Prestwick,inactive: 0
same,dopaminergic neuron differentiation score,ReNCell VM [2]; library: Prestwick,inactive: 0
COC(c1ccccc1)(c1ccccc1)[C@H](Oc1nc(C)cc(C)n1)C(=O)O [Ambrisentan],neuronal differentiation score,ReNCell VM [1]; library: Prestwick,inactive: 0
same,dopaminergic neuron differentiation score,ReNCell VM [2]; library: Prestwick,inactive: 0
CN(CCOc1ccc(CC2SC(=O)NC2=O)cc1)c1ccccn1 (stereo unspecified),neuronal differentiation score,ReNCell VM [1]; library: Spectrum,inactive: 0
same,dopaminergic neuron differentiation score,ReNCell VM [2]; library: Spectrum,inactive: 0
CC(C)(CO)[C@@H](O)C(=O)NCCC(=O)O [PANTOTHENIC ACID(d) Na salt],neuronal differentiation score,ReNCell VM [1]; library: Spectrum,inactive: 0
same,dopaminergic neuron differentiation score,ReNCell VM [2]; library: Spectrum,inactive: 0
COc1ccc2[nH]c(I)c(CCNC(C)=O)c2c1 [2-Iodomelatonin],neuronal differentiation score,ReNCell VM [1]; library: Tocriscreen,inactive: 0
same,dopaminergic neuron differentiation score,ReNCell VM [2]; library: Tocriscreen,inactive: 0
Cc1cc(-n2c(=O)[nH]c(=O)n(C)c2=O)ccc1Oc1ccc(SC(F)(F)F)cc1,neuronal differentiation score,ReNCell VM [1]; library: Spectrum,inactive: 0
same,dopaminergic neuron differentiation score,ReNCell VM [2]; library: Spectrum,inactive: 0
CCN(CC)CCOC(=O)C(c1ccccc1)C1CCCCC1 (stereo unspecified) [Drofenine hydrochloride],neuronal differentiation score,ReNCell VM [1]; library: Prestwick,inactive: 0
same,dopaminergic neuron differentiation score,ReNCell VM [2]; library: Prestwick,inactive: 1
NS(=O)(=O)c1cc2c(cc1Cl)N=CNS2(=O)=O,neuronal differentiation score,ReNCell VM [1]; library: Spectrum,inactive: 0
same,dopaminergic neuron differentiation score,ReNCell VM [2]; library: Spectrum,inactive: 0
COc1ccccc1N1CCN(CCCCNC(=O)c2ccc(-c3ccc(C(C)=O)cc3)cc2)CC1,neuronal differentiation score,ReNCell VM [1]; library: Tocriscreen,inactive: -3
same,dopaminergic neuron differentiation score,ReNCell VM [2]; library: Tocriscreen,inactive: 0
CN1CCC[C@@H]1c1cccnc1.Cc1ccc(C(=O)O[C@H](C(=O)O)[C@@H](OC(=O)c2ccc(C)cc2)C(=O)O)cc1 [(+)-Nicotine (+)-di-p-toluoyl tartrate],neuronal differentiation score,ReNCell VM [1]; library: LOPAC,inactive: 0
same,dopaminergic neuron differentiation score,ReNCell VM [2]; library: LOPAC,inactive: 0
O=C(NCCN1CCCCC1)c1ccc(I)cc1 [N-[2-(Piperidinylamino)ethyl]-4-iodobenzamide],neuronal differentiation score,ReNCell VM [1]; library: Tocriscreen,inactive: 0
same,dopaminergic neuron differentiation score,ReNCell VM [2]; library: Tocriscreen,inactive: 0
COCc1nc2c([nH]1)c(=O)n(C)c(=O)n2CC(C)C [8-Methoxymethyl-3-isobutyl-1-methylxanthine],neuronal differentiation score,ReNCell VM [1]; library: LOPAC,inactive: 0
same,dopaminergic neuron differentiation score,ReNCell VM [2]; library: LOPAC,inactive: 0

# Rewritten with bars between the fields: entries from further up
compound | measurement | setting | value
COc1ccc(-c2nc(-c3ccc(-c4cccc(Cl)c4)o3)[nH]c2-c2ccc(OC)cc2)cc1 [Neurodazine] | neuronal differentiation score | ReNCell VM [1]; library: Tocriscreen | inactive: 0
CN1CCC[C@@H]1c1cccnc1.Cc1ccc(C(=O)O[C@H](C(=O)O)[C@@H](OC(=O)c2ccc(C)cc2)C(=O)O)cc1 [(+)-Nicotine (+)-di-p-toluoyl tartrate] | dopaminergic neuron differentiation score | ReNCell VM [2]; library: LOPAC | inactive: 0
